For one molecule, binding results are on record in patent publication US20260034230A1.

By UniProt entry, the sequences of proteins in these tests, tags left out. Where a name states a change or a piece, a line headed by the entry shows the natural chain unless it says otherwise. Chains listed by the source or under a name are the forms on record and can include a tag or linker.
REGN2120, hTfR(C89-F763).mmh (P02786, form named): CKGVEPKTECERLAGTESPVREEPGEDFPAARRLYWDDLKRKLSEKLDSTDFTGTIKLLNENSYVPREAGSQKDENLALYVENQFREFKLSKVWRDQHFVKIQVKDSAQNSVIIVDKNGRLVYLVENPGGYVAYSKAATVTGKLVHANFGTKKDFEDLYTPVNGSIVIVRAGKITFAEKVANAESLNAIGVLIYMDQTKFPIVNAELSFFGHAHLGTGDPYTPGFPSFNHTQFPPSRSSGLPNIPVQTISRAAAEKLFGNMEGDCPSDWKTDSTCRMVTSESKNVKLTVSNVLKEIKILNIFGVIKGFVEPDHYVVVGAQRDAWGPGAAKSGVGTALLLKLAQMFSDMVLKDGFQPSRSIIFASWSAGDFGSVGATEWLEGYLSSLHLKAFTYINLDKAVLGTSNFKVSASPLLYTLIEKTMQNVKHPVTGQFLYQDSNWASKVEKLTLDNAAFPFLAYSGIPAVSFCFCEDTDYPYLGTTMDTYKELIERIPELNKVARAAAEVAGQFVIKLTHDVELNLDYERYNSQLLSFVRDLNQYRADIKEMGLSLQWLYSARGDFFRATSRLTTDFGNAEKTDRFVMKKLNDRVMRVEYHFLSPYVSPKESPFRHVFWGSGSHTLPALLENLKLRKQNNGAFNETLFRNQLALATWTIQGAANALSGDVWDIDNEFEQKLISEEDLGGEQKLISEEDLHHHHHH

These are yes or no findings as the source states them, for the method shown. Some results given as binding are weak or reduced against the parent protein; the word gives no strength.

The target in experiment [1] is hTfR(C89-F763).mmh (REGN2120) (human) (UniProt P02786). The experiment in a line: HDX-MS, antibody mixed with hTfR.mmh.
Experiment [2] deals with REGN2120, hTfR(C89-F763).mmh (human) (UniProt P02786). The experiment in a line: HDX-MS, hTfR in mixture with the mAb.

B1: REGN17517 (H1H31874B) (antibody, human IgG1, kappa, V domains shown)
VH: EVQLVESGGGLVQPGGSLRLSCAASGFAFSSYAMTWVRQAPGKGLEWVSVISGTGGSTYYADSVKGRFTISRDNSKNTLYLQMNSLRAEDTAVYYCAKGGAARRMEYFQYWGQGTLVTVSS
VL: DIQMTQSPSSLSASVGDRVTITCRASQGISNYLAWYQQKPGKVPNLLIYAASTLQSGVPSRFSGSGSGTDFTLTISSLQPEDVATYYCQKYNSAPLTFGGGTKVEIKR
For B1, the binding result in experiment [1] and in experiment [2] was “binds” each time.
